PMC13227277, “Targeting CIRP and IL-6R-mediated microglial inflammation to improve outcomes in intracerebral hemorrhage” (Journal of Advanced Research, 2025)
No constants are given. Whether binding was seen depends on the method and setting. In cells and extracts the contact can be indirect. A result given as binding can be weak or reduced; the word gives no strength.

Target: T1, CIRP precipitated from IL-6R-overexpressing HEK 293T cells (UniProt Q14011)
T1 sequence: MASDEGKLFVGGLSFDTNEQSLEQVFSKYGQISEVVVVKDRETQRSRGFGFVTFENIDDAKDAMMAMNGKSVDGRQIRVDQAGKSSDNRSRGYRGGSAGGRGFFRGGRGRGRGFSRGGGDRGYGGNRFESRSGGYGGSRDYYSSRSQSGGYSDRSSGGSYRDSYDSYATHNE
Test: co-IP

binding: binds
Substance: IL-6R overexpressed in HEK 293T cells (pcDNA3.1(+)-IL6r-3xFLAG-P2A-EGFP) (receptor)
